From PMC8436934 come the findings set out here.

In this assay the target is Neuronal PAS Domain Protein 2 (NPAS2) (rat (endogenous in rat myocardial tissue and H9c2)). The experiment in a line: co-IP; extracts of rat myocardial tissue and of H9c2 cells; immunoprecipitation with anti-NPAS2 or anti-Cry2 antibody, Western blot for Cry2 or NPAS2. (In general: Immunoblotting shows a protein as a band on a membrane.)

These are yes or no findings as the source states them, for the method shown. Binding seen in cells or lysates may run through a third protein. A result given as binding can be weak or reduced; the word gives no strength.

B1: Cryptochrome circadian regulator 2 (Cry2) (protein, UniProt Q923I8 1-594)
chain: MAAAAVVAATVPVQSMGADGASSVHWFRKGLRLHDNPALLAAVRGARCVRCVYILDPWFAASSSVGINRWRFLLQSLEDLDTSLRKLNSRLFVVRGQPADVFPRLFKEWGVTRLTFEYDSEPFGKERDAAIMKMAKEAGVEVVTENSHTLYDLDRIIELNGQKPPLTYKRFQALISRMELPKKPVGAVSSQHMENCRAEIQENHDDTYGVPSLEELGFPTEGLGPAVWQGGETEALVRLDKHLERKAWVANYERPRMNANSLLASPTGLSPYLRFGCLSCRLFYYRLWDLYRKVKRNSTPPLSLFGQLLWREFFYTAATNNPRFDRMEGNPICIQIPWDRNPEALAKWAEGKTGFPWIDAIMTQLRQEGWIHHLARHAVACFLTRGDLWVSWESGVRVFDELLLDADFSVNAGSWMWLSCSAFFQQFFHCYCPVGFGRRTDPSGDYIRRYLPKLKGFPSRYIYEPWNAPESVQKAANCIIGVDYPRPIVNHAETSRLNIERMKQIYQQLSRYRGLCLWASVPSCVEDLSHPVAEPGSSQAGSISNTGPRPLSSGPASPKRKLEAAEEPPGEELSKRARVTVTQMPAQEPPSKDS
With B1, the binding entry is recorded as “binds”.
